PubChem BioAssay AID540276 (National Center for Advancing Translational Sciences (NCATS), 2011)
Out of some 300,000 compounds screened, about 5,400 (1.8%) were called active. Inconclusive means that the source gave no clear call. Such entries were picked first, then a sample of the others. Calls follow the shape of the full dose curve; tested in HEK293 cells. Where the call is inconclusive, the potency comes from a doubtful curve fit.

test: qHTS for inhibitors of binding or entry into cells for Marburg Virus; conditions: Marburg virus pseudotyped entry inhibition, cell reporter; activity change, negative = inhibition: at 37.8 µM (top of the series) unless noted
% is scaled to controls: 0 for no effect and ±100 for the full control effect; potency is read from the fitted curve at half-maximal effect.

| SMILES | Potency | activity change, negative = inhibition |
| --- | --- | --- |
| COc1ccccc1C1CC(=O)Nc2cc3c(cc21)OCCO3 (centres undefined) | active: 2.06 µM | – |
| O=C(CN1CCCC1)N/N=C/c1ccc(-c2cccc(Cl)c2)o1 | – | inactive: -1.8% |
| CCCn1c(SCC(=O)Nc2ccc3c(c2)OCO3)nc2c1c(=O)n(C)c(=O)n2C | inconclusive: 11.6 µM [activator, partial curve, poor fit] | – |
| CCN1C(=O)/C(=C2/Sc3ccc(OC)cc3N2C)SC1=Nc1cccc(O)c1 | inconclusive: 23.1 µM [inhibitor, single point] | – |
| O=C(CCS(=O)(=O)c1cccc2nsnc12)N1CCN(Cc2ccc3c(c2)OCO3)CC1 | inconclusive: 1.64 µM [inhibitor, full curve] | – |
| CC1CN(C(=O)C(C)N2C(=O)c3ccccc3C2=O)CC(C)O1 (centres undefined) | inconclusive: 29.1 µM [activator, partial curve, poor fit] | – |
| Cc1oc(C)c2c(=O)cc(-c3ccc4c(c3)OCO4)cc(OC(=O)c3ccccc3Cl)c12 | inconclusive: 6.31 µM [activator, single point] | – |
| CCn1cnc2cc(NCc3cccs3)ccc21 | inconclusive: 35.5 µM [activator, single point] | – |
| Cc1ccc(S(=O)(=O)NC(CCc2ccccc2)CC(=O)C(C)(C)C)cc1 (centres undefined) | inconclusive: 18.4 µM [inhibitor, single point] | – |
| Clc1ccc(-c2csc(NNC3=NCCCCC3)n2)cc1 | inconclusive: 8.91 µM [inhibitor, partial curve, poor fit] | – |
| CC(N)(Cc1ccc(O)c(O)c1)C(=O)O (centres undefined) | inconclusive: 6.28 µM [activator, partial curve, poor fit] | inconclusive: -4.5% [inhibitor] |
| O=C(CC(O)(CC(=O)OCc1ccccc1)C(=O)OCc1ccccc1)OCc1ccccc1 | inconclusive: 11.2 µM [inhibitor, partial curve] | – |
| CC1SCC(=NOCc2c(Cl)cccc2Cl)CS1 (centres undefined) | – | inactive: -7.78% [at 46.1 µM] |
| Cc1ccc2c(C)[nH]c(=O)cc2c1 | inconclusive: 15.8 µM [inhibitor, single point] | – |
| COc1ccc(-c2nc3c4ccccc4[nH]c(=O)n3n2)cc1 | inconclusive: 1.46 µM [activator, full curve, poor fit] | – |
| CCc1nnc(NC(=O)c2nc(SCc3ccccc3C)ncc2Cl)s1 | inconclusive: 35.5 µM [inhibitor, single point] | – |
| COc1ccc(-c2nnnn2C)cc1S(=O)(=O)Nc1ccc(C)cc1C | – | inactive: -4.19% [at 46.1 µM] |
| COc1ccc(NS(=O)(=O)c2ccc(C(=O)NCC3(N4CCOCC4)CCCCC3)cc2)cc1 | inconclusive: 35.5 µM [inhibitor, partial curve, poor fit] | – |
| O=C(CSc1cccc[n+]1[O-])c1ccc(-c2ccccc2)cc1 | inconclusive: 2.82 µM [activator, partial curve, poor fit] | – |
| Cc1c(Cl)cccc1-n1c(SCC(=O)NCc2ccccc2Cl)nnc1-c1ccncc1 | – | inactive: -17.4% |
| Cc1ccccc1OCCC(=O)Nc1ccc2c(C)cc(=O)oc2c1 | – | inactive: 22.2% [at 46.1 µM] |
| O=C(Nc1nc2nccc(-c3ccccc3)n2n1)c1ccc(F)cc1 | – | inactive: 24.3% |
| COc1ccc(NC(=O)c2coc(C)c2)cc1 | inconclusive: 3.55 µM [activator, single point] | – |

| SMILES | Potency | activity change, negative = inhibition |
| --- | --- | --- |
| O=C(CSc1nnc(NC(=O)C2CC(=O)N(c3ccc(F)cc3)C2)s1)NC1CCCC1 (centres undefined) | – | inactive: 4.7% |
| CC(C)c1ccc2c(c1)C(N1CCNCC1)Cc1ccc(F)cc1S2 (centres undefined) | inconclusive: 20 µM [inhibitor, partial curve, poor fit] | – |
| CCOc1ccc(-n2c(-c3ccccc3)c(C)n3c4c(=O)n(C)c(=O)n(C)c4nc23)cc1 | inconclusive: 10 µM [inhibitor, partial curve, poor fit] | – |
| COc1ccc(NC(=O)C2CCCN(S(=O)(=O)c3ccc4c(c3)CCCN4C(C)=O)C2)cc1Cl (centres undefined) | – | inactive: -10.1% [at 46.1 µM] |
| COc1ccc(C(=O)COC(=O)c2c(C)noc2C)cc1Cl | – | inactive: 7.27% [at 46.1 µM] |
| COc1ccc(CC(=O)N/N=C(\C)c2cccc(NC(=O)C3CC3)c2)cc1 | – | inactive: -17.6% [at 46.1 µM] |
| Cc1ccc2c(c1)S/C(=C/c1ccc[n+](CCO)c1)N2C | inconclusive: 35.5 µM [inhibitor, single point] | – |
| O=C(Nc1ccc(-c2nc3ncccc3o2)cc1)c1ccco1 | – | inactive: 18.8% |
| Cc1cc(C)c2c(c1)/C(=c1/sc3n(c1=O)CN(c1ccccc1)CN=3)C(=O)N2 | inconclusive: 3.98 µM [inhibitor, full curve, poor fit] | – |
| Cc1c(/C=N/NC(=O)COc2ccccc2[N+](=O)[O-])c2ccccc2n1C | – | inactive: -23.4% |
| OC1(c2ccccc2)CCNC2CCCCC21 (centres undefined) | inconclusive: 35.5 µM [inhibitor, single point] | – |
| CCCCn1c(O)c(C(C)=Nc2ccc(OCC)cc2)c(=O)[nH]c1=O | – | inactive: 6.53% |
| O=C(CC(CC(=O)c1ccccc1)c1ccccn1)c1ccccc1 | inconclusive: 2.82 µM [inhibitor, partial curve, poor fit] | – |
| Cc1cccc(N2CCN(C(=O)c3cccc(S(=O)(=O)N4CCCCC4)c3)CC2)c1C | inconclusive: 35.5 µM [inhibitor, single point] | – |
| Cc1ccc(S(=O)(=O)N(C(=O)c2ccncc2)c2ccc(OC(=O)c3ccncc3)c3ccccc23)c(C)c1 | inconclusive: 35.5 µM [inhibitor, partial curve, poor fit] | – |
| Cc1ccc(C#N)c(SCc2ccccc2F)n1 | – | inactive: 0.0717% [at 46.1 µM] |
| c1cc(N2CCCCC2)nc(N2CCCCC2)n1 | inconclusive: 17.8 µM [inhibitor, partial curve, poor fit] | – |
| COc1ccc(CN2CCn3nc(C(=O)NC4CC4)cc3C2=O)cc1 | inconclusive: 35.5 µM [activator, single point] | – |
| COCCN(CC1CCCN(C2Cc3ccccc3C2)C1)C(=O)CCC(N)=O (centres undefined) | inconclusive: 35.5 µM [inhibitor, partial curve, poor fit] | – |
| CCOC(=O)Cn1c(=O)c2c(nc(Br)n2CC(=O)OCC)n(C)c1=O | inconclusive: 2.51 µM [inhibitor, partial curve, poor fit] | – |
| CC(=O)NC1CCCC(NC(C)=O)C1 (centres undefined) | – | inactive: 0.417% [at 46.1 µM] |
| Cc1cccc(NS(=O)(=O)c2ccc(-n3cccn3)cc2)c1C | inactive | – |
| CCOc1ccc(/C=N/NC(=O)c2[nH]c3ccc(C)cc3c2C)cc1 | inconclusive: 2.82 µM [inhibitor, full curve, poor fit] | – |

| SMILES | Potency | activity change, negative = inhibition |
| --- | --- | --- |
| CN(C)S(=O)(=O)c1ccc(C(=O)Nc2ccnn2C2CCCCC2)cc1 | inconclusive: 32.6 µM [inhibitor, single point] | – |
| COc1ccc(NC(=O)C2CCN(c3nc(C)nc4c3CCC4)CC2)cc1 | inconclusive: 4.47 µM [inhibitor, full curve, poor fit] | – |
| COc1ccc(C(NC(=O)/C=C/c2ccco2)c2ccc(OC)c(OC)c2)cc1 (centres undefined) | inconclusive: 35.5 µM [inhibitor, single point] | – |
| Cc1nc(Cc2nnc(SCc3nc(N)nc(Nc4ccccc4C)n3)o2)cs1 | – | inactive: -4.91% [at 46.1 µM] |
| CCN(CC(=O)Nc1c(C(=O)OC)[nH]c2ccc(Cl)cc12)c1ccc2c(c1)OCO2 | inconclusive: 15.8 µM [inhibitor, single point] | – |
| c1ccc2[nH]c(NCc3ccc4c(c3)OCO4)nc2c1 | inconclusive: 3.16 µM [activator, partial curve, poor fit] | – |
| Cc1ccc(OC(=O)c2cccnc2)cc1 | – | inactive: 0.495% [at 46.1 µM] |
| CCn1c(=N)n(CC(=O)c2cccc(OC)c2)c2ccccc21 | inconclusive: 35.5 µM [inhibitor, single point] | – |
| COc1ccc2ncc(S(=O)(=O)c3ccccc3)c(N3CCC4(CC3)OCCO4)c2c1 | inconclusive: 14.1 µM [inhibitor, partial curve, poor fit] | – |
| COC(=O)C12CCC(C)(c3nc4ccccc4nc31)C2(C)C (centres undefined) | inconclusive: 6.31 µM [inhibitor, partial curve, poor fit] | – |
| COc1ccc(C(=O)Nc2ncc3c(n2)CC(C)CC3=O)cc1 (centres undefined) | – | inactive: -9.84% [at 46.1 µM] |
| CCN(C(=O)COc1cc(=O)n(CC)c2ccccc12)c1cccc(Cl)c1 | inconclusive: 0.58 µM [inhibitor, full curve, poor fit] | – |
| COc1ccc(C(=O)C2CCCN(C(=O)c3noc4c3CCCC4)C2)c(C)c1 (centres undefined) | inconclusive: 11.2 µM [inhibitor, partial curve, poor fit] | – |
| COc1ccc(N2CCCn3c2nc2c3c(=O)n(Cc3ccccc3F)c(=O)n2C)c(OC)c1 | inconclusive: 0.184 µM [inhibitor, partial curve, poor fit] | – |
| Cc1cccc(OCC(=O)Nc2ccc(Cl)c(-c3nc4ccccc4[nH]3)c2)c1 | inconclusive: 17.8 µM [inhibitor, single point] | – |
| NS(=O)(=O)c1ccc(NC(=S)NCCc2ccccc2)cc1 | – | inactive: 3.94% |
| CC(CNCC1CCCO1)COc1cccc2ccccc12 (centres undefined) | inconclusive: 14.1 µM [inhibitor, single point] | – |
| CCc1ccc(N(C(=O)c2ccco2)C(C(=O)NC2CCCC2)c2ccncc2)cc1 (centres undefined) | – | inactive: -4.22% [at 46.1 µM] |
| O=C(O)CCC(=O)Nc1ccc(C(=O)OCC(=O)c2ccc(Cl)cc2)cc1 | – | inactive: 13.3% [at 46.1 µM] |
| CS(=O)(=O)N1CCN(c2nc(-c3ccc(F)cc3)cs2)CC1 | – | inactive: -1.68% |
| COc1ccc(CNC(=O)COc2ccc(S(=O)(=O)N3CCOCC3)cc2C)cc1 | inconclusive: 7.94 µM [inhibitor, single point] | – |
| CN1CCc2nc3sc(C(=O)Nc4cccc(C#N)c4)c(N)c3cc2C1 | inconclusive: 3.16 µM [activator, partial curve, poor fit] | – |

Single values from the results shown.
Under Potency, CCCn1c(SCC(=O)Nc2ccc3c(c2)OCO3)nc2c1c(=O)n(C)c(=O)n2C shows inconclusive: 11.6 µM [activator, partial curve, poor fit]
Under Potency, O=C(CSc1cccc[n+]1[O-])c1ccc(-c2ccccc2)cc1 shows inconclusive: 2.82 µM [activator, partial curve, poor fit]
